These are yes or no findings as the source states them, for the method shown. In cells and extracts the contact can be indirect. Some entries that bind do so weakly or less than the wild type.

Sequences of proteins named here, by UniProt entry; tags and fusion partners are left off.
UniProt Q14145: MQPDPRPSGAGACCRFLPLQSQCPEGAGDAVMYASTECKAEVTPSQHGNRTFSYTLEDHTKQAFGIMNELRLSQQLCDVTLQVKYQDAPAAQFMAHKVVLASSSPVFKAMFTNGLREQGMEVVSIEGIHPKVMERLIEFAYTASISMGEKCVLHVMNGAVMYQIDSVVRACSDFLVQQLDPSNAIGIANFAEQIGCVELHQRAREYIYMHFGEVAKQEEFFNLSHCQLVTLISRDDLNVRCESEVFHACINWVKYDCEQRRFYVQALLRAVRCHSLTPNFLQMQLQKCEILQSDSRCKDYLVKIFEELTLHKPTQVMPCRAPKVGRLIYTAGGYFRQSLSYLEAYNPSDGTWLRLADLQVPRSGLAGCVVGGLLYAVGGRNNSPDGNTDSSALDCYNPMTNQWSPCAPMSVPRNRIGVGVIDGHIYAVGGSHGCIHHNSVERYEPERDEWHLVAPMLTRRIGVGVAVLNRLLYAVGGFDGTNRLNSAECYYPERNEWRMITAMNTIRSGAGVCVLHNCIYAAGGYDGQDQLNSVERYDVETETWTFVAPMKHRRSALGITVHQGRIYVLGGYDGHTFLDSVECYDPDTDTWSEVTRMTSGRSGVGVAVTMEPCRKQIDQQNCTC
UniProt O14744: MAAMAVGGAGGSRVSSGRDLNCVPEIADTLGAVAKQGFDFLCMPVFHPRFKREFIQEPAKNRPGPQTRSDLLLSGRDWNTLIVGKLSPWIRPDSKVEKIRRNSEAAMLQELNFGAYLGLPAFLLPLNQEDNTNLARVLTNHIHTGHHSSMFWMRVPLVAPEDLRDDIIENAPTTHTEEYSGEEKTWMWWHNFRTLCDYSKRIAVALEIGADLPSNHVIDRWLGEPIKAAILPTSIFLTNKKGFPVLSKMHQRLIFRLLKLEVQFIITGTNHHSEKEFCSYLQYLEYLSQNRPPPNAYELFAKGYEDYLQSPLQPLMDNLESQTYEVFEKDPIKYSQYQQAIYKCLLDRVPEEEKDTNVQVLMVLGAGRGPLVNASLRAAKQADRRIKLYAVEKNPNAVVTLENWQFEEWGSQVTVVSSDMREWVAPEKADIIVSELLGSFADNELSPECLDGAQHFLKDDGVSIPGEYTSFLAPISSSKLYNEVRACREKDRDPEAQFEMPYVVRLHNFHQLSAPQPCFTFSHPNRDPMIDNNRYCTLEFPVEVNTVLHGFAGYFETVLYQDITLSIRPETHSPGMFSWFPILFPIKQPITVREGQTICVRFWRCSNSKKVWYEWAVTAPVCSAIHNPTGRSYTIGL

In the assay the target is Kelch-like ECH-associated protein 1 (KEAP1), FLAG-tagged (UniProt Q14145). The assay is described as follows: co-IP; FLAG-KEAP1 overexpressed in HEK 293 cells, 1 uM MG132 added after 24 hours, lysed at 48 hours in co-IP buffer (50 mM Tris pH 8.0, 0.5% NP-40, 200 mM NaCl, 0.1 mM EDTA, 10% glycerol); precipitated with anti-FLAG antibody and protein A/G magnetic beads at 4°C; Western blot. In general terms: Immunoblotting shows a protein as a band on a membrane.

For “protein arginine methyltransferase 5 (PRMT5) (from UniProt O14744 1-637)”, the binding entry is given as “binds”.

For the origin of these results see PMC11910213.
